These results are taken from article PMC5722368.

Results are given in words; binding and its absence hold for the method and conditions named. In cells and extracts the contact can be indirect. These calls come from enrichment with a bait or labelling near it, and not all partners need be listed. Sequences can lack the tags named with a protein.

In the assay the target is T1, Schistosoma mansoni histone deacetylase 8 (SmHDAC8), endogenous (S. mansoni (endogenous in adult worms)) (UniProt A5H660).
T1 sequence: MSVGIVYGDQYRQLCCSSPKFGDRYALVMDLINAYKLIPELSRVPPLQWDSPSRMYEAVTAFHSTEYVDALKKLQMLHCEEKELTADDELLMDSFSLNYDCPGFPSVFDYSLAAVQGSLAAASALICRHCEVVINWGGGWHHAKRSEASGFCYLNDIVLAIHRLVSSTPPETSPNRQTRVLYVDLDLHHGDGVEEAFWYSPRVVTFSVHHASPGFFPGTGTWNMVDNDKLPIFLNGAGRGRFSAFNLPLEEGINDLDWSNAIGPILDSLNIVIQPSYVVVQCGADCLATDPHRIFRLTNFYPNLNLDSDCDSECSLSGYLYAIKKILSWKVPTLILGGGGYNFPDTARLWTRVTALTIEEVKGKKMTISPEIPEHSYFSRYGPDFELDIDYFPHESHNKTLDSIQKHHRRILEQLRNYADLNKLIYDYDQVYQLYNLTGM
Description: affinity purification with mass spectrometry; Co-IP of endogenous SmHDAC8 from adult worm lysate (20 mM Tris HCl pH 7.4, 50 mM NaCl, 5 mM EDTA, 1% Triton) with rat anti-SmHDAC8 antibodies on protein-L agarose, overnight at 4°C; rat IgG control; three experiments pooled; nanoLC-MS/MS.
With Sec1 (S. mansoni), the binding result is “binds”.

Consider Sec61β (S. mansoni), for which the binding result is recorded as “binds”.

Take “cathepsin D (S. mansoni (endogenous in adult worms)) (enzyme)”: the binding result is reported as “binds”.

With “cathepsin L2 (S. mansoni (endogenous in adult worms)) (enzyme)”, the binding result is on record as “binds”.

As for gelsolin (S. mansoni orthologue), the binding result is listed as “binds”.

As to “microsomal glutathione S-transferase 3 (GST-3), endogenous (S. mansoni (endogenous in adult worms))”, the binding result is recorded as “binds”.

Take “putative NADH-ubiquinone oxidoreductase, endogenous (S. mansoni (endogenous in adult worms))”: the binding result is on record as “binds”.

Regarding septin (S. mansoni), the binding result was “binds”.
